In PMC12532768:
Construct, isoform or probe ends are uncertain for at least one entry.

By UniProt entry, the sequences of proteins in these tests, tags left out. Where a name states a change or a piece, a line headed by the entry shows the natural chain unless it says otherwise.
UniProt P05067: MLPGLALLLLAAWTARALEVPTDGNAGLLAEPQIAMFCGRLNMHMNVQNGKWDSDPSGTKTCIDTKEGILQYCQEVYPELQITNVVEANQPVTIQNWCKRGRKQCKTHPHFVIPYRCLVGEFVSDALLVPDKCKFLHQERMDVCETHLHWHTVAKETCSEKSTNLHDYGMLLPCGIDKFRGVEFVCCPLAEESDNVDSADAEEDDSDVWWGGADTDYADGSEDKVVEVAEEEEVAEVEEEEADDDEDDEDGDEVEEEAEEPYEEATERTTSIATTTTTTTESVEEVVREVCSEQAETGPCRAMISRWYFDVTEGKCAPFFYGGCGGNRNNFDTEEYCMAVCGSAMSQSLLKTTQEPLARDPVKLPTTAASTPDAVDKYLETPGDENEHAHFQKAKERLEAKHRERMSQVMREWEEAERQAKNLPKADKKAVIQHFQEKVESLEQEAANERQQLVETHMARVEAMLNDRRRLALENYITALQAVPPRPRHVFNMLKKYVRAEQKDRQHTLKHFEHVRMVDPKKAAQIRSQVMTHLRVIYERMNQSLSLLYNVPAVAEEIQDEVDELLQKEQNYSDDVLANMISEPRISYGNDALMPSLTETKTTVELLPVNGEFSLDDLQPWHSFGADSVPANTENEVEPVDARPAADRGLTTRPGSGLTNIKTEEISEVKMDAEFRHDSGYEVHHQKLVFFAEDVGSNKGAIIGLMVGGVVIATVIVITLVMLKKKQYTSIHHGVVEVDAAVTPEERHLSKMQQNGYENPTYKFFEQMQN

Molecular target: Amyloid-beta 40 (Abeta40) (UniProt P05067)
Experiment: not stated (literature value)
Conditions: value given for both aptamers together; 5'-amino C12, immobilized via glutaraldehyde; Binding buffer 10 mM Tris-HCl, 150 mM NaCl, 5 mM KCl, pH 7.4; temperature not stated; single-stranded DNA

## GCCTGTGGTGTTGGGGCGGGTGCG [apt1 (mOS1)]
  Kd: 0.025 µM
